# The supplement of paper PMC11732987, “Enantioselective OTUD7B fragment discovery through chemoproteomics screening and high-throughput optimisation” (Communications Chemistry, 2025)
# Protein sequences, listed by entry. Tags and fused reporters are not part of them. Lines headed by an entry give the natural chain unless they say otherwise; changes in a name come on top. Residues count along the entry.
# UniProt Q99613, whole entry, looked up: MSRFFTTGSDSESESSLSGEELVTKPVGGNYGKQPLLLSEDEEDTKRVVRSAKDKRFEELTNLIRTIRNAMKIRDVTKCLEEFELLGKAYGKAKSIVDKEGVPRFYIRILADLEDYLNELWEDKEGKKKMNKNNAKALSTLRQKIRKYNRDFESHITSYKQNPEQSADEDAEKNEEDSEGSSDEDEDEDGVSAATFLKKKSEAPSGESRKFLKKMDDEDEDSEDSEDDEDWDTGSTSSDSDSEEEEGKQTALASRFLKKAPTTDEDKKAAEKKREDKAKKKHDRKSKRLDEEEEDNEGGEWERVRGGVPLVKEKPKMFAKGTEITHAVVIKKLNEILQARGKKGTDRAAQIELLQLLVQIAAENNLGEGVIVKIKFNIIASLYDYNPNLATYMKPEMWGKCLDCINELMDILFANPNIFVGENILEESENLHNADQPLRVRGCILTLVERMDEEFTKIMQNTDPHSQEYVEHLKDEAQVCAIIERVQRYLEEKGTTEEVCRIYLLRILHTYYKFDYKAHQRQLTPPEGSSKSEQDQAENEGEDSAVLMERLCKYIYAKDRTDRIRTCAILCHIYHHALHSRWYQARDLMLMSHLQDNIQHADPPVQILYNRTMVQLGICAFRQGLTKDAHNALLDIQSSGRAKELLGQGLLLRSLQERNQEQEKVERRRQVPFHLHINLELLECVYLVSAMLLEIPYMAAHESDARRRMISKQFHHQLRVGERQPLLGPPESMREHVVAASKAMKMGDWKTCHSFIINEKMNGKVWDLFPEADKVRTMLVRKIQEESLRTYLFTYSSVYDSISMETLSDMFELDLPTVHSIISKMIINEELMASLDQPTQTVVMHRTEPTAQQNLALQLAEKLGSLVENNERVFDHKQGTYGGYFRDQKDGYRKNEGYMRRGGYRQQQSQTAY
# UniProt P60981: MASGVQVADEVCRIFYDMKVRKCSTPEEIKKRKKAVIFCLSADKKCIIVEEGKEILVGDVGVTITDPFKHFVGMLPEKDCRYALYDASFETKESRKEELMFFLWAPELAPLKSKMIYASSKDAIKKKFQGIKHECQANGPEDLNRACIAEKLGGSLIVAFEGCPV
# UniProt P05198, whole entry, looked up: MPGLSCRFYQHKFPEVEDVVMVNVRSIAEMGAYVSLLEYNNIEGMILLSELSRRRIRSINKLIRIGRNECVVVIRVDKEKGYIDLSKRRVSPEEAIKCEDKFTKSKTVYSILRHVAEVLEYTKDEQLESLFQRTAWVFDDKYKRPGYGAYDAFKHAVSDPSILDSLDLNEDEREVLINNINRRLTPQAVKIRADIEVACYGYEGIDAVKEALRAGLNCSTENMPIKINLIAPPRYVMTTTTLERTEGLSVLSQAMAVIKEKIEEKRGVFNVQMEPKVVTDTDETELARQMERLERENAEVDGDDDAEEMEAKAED
# UniProt Q9GZT9: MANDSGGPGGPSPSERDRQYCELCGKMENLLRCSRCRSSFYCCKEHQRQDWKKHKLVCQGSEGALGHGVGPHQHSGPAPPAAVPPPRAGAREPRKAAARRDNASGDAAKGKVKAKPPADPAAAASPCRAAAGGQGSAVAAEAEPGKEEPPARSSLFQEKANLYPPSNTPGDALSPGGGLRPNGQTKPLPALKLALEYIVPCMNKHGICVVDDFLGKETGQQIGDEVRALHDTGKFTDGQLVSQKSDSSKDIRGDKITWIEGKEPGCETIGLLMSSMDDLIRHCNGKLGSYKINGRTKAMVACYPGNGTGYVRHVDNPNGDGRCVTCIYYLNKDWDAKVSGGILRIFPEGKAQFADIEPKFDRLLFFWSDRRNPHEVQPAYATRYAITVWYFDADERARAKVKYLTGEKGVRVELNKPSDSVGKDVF
# UniProt Q3B7T1: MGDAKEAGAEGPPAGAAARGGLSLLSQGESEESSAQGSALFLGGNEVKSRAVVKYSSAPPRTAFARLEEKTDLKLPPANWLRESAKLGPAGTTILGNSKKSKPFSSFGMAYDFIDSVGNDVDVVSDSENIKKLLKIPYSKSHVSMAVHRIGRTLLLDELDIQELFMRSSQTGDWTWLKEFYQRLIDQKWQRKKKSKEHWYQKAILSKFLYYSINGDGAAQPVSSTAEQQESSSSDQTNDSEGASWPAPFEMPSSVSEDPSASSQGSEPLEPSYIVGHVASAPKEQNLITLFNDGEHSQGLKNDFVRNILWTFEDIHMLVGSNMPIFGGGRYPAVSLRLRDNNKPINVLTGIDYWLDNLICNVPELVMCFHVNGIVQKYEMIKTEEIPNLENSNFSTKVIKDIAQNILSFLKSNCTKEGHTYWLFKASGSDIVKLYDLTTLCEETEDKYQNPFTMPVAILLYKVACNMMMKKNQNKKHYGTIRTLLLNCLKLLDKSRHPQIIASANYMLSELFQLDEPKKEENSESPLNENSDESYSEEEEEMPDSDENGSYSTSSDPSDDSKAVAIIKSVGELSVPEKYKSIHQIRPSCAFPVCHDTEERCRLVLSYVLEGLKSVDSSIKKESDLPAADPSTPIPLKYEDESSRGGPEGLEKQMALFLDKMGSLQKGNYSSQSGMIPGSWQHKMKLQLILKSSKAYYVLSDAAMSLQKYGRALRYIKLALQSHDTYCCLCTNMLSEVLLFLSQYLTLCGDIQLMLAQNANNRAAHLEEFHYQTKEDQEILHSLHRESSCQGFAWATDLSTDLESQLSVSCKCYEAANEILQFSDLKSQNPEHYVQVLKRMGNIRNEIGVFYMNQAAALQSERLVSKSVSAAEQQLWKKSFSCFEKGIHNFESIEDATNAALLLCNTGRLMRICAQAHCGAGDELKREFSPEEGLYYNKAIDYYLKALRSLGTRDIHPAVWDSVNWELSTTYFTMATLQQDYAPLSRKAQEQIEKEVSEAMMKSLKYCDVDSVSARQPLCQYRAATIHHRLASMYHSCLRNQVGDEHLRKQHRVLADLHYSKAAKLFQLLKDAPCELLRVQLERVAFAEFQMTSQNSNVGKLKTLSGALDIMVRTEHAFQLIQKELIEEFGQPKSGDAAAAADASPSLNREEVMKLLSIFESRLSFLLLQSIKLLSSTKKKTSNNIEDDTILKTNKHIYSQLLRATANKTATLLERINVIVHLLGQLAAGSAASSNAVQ
# UniProt Q12805: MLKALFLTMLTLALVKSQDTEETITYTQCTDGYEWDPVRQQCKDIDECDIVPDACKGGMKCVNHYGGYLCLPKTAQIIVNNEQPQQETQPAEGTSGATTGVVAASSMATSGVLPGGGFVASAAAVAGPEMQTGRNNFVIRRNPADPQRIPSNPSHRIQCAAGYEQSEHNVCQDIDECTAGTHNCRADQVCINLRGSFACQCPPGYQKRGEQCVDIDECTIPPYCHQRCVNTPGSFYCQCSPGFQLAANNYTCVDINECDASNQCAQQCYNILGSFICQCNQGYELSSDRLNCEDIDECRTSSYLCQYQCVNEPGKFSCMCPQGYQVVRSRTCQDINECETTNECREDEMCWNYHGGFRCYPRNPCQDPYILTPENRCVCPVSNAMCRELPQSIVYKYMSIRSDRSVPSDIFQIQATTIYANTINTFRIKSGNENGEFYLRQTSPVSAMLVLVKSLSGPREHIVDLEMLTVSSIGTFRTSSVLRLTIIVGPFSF
# UniProt P63167, 10-31: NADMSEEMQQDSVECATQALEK
# UniProt Q7Z2Z2: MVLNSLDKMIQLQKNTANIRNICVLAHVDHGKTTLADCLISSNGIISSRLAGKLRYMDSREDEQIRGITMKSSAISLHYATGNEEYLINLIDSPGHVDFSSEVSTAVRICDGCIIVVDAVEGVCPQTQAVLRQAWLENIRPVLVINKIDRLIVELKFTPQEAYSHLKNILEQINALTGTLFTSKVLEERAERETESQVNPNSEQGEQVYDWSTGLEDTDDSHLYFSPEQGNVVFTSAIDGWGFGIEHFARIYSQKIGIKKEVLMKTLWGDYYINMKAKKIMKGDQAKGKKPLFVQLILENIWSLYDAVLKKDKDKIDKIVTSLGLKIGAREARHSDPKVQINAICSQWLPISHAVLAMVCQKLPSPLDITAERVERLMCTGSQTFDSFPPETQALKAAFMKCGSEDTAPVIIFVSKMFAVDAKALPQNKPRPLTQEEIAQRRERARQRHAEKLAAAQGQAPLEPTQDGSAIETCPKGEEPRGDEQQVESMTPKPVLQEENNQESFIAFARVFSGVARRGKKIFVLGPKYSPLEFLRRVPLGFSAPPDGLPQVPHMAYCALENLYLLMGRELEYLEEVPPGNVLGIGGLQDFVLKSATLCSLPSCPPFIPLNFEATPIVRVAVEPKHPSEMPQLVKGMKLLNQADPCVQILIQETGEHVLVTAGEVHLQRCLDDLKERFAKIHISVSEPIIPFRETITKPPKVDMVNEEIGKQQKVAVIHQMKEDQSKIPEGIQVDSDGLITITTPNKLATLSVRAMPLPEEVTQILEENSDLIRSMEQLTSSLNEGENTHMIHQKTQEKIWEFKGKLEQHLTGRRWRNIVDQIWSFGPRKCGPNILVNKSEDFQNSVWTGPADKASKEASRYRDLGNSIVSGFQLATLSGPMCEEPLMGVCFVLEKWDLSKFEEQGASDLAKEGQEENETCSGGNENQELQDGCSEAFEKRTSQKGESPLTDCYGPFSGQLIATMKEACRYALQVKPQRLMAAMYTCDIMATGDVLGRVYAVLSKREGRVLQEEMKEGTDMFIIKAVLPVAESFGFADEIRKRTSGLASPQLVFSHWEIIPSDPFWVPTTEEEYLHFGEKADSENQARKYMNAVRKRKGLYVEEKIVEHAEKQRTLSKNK
# UniProt Q9NZJ0: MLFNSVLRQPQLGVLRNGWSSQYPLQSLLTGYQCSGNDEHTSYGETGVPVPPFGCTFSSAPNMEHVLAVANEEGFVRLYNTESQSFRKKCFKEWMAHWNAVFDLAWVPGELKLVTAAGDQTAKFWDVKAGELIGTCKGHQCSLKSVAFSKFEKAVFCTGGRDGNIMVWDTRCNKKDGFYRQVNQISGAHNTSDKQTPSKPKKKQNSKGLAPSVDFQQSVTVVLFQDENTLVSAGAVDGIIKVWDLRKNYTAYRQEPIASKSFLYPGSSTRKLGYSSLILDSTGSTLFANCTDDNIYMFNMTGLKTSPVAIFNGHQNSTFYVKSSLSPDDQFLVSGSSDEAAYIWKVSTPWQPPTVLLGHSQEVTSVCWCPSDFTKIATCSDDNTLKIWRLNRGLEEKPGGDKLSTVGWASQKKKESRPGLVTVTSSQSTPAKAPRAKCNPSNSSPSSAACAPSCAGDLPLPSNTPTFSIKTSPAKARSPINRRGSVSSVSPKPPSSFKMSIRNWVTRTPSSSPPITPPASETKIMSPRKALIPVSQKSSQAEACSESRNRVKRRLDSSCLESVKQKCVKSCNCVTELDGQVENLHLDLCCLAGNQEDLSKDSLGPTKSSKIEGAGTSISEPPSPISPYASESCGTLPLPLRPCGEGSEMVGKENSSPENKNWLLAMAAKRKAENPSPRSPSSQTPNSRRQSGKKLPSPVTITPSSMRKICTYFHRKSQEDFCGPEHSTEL
# UniProt O75461: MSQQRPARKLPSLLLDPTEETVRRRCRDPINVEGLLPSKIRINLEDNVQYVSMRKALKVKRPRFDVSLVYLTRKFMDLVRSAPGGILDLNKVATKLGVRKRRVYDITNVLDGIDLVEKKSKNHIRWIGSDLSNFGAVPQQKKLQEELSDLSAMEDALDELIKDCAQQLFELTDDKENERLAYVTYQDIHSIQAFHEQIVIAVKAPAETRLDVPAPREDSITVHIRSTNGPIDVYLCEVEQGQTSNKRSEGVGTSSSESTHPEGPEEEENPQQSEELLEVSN
# UniProt O75822: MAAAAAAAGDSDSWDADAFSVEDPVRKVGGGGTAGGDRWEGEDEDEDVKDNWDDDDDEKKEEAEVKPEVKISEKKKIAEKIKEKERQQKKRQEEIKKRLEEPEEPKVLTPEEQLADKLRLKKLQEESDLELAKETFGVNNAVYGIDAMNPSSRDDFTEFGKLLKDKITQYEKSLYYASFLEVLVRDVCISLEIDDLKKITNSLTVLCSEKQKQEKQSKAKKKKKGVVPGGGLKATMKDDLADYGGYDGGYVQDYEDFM
# This is one part of the list. The data scatter; read single values as rough.
# Compound: ClCC(=O)N[C@H]1CCCc2ccccc12
# Assay: log2 mean competition ratio of IA-DTB cysteine labelling (DMSO/compound) (log2 ratio); higher = stronger cysteine engagement by compound
# Settings: 50 µM; treatment time: 4 h; cell line lysate: HEK293T
# Method: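 IA-DTB competitive cysteine chemoproteomics in HEK293T RIPA lysate. Lysates were treated with compound 29 or 30 at 50 or 200 µM for 4 h, then IA-DTB (500 µM, 1 h), trypsin-digested, NeutrAvidin-enriched and analysed by diaPASEF. Competition ratio = intensity DMSO / intensity compound (n=4 treated, n=64 DMSO); binding: mean log2 CR ≥ 1 and p ≤ 0.05 plus QC filters. Target is the cysteine site.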
row,Target,log2 mean competition ratio
1,DSC3 C814,-0.148
2,ECT2 C686 (UniProt Q9H8V3),0.109
3,EIF3C C752 (UniProt Q99613),-0.3
4,DSTN C39 (UniProt P60981),0.25
5,EIF2S1 C98 (UniProt P05198),0.185
6,DST C2061 (UniProt Q03001),-0.164
7,DSC3 C471,-0.151
8,EGLN1 C201 (UniProt Q9GZT9),0.0964
9,EDRF1 C1007 (UniProt Q3B7T1),-0.548
10,DUSP11 C117,-0.338
11,EIF3G C169,-0.268
12,EFEMP1 C190 (UniProt Q12805),0.122
13,DYNLL1 C24 (UniProt P63167),0.0179
14,EFL1 C831 (UniProt Q7Z2Z2),0.194
15,EIF4B C457,0.0139
16,EFL1 C670 (UniProt Q7Z2Z2),0.0431
17,DTL C544 (UniProt Q9NZJ0),-0.221
18,E2F6 C26 (UniProt O75461),-0.337
19,EIF3J C207 (UniProt O75822),-0.488
20,DST C6799 (UniProt Q03001),-0.0317

# Same assay, conditions: 200 µM; treatment time: 4 h; cell line lysate: HEK293T
row,Target,log2 mean competition ratio
1,DSC3 C814,0.237
2,ECT2 C686 (UniProt Q9H8V3),0.119
3,EIF3C C752 (UniProt Q99613),-0.209
4,DSTN C39 (UniProt P60981),-0.123
5,EIF2S1 C98 (UniProt P05198),-0.273
6,DST C2061 (UniProt Q03001),0.192
7,DSC3 C471,-0.104
8,EGLN1 C201 (UniProt Q9GZT9),-0.107
9,EDRF1 C1007 (UniProt Q3B7T1),0.135
10,DUSP11 C117,-0.193
11,EIF3G C169,0.0786
12,EFEMP1 C190 (UniProt Q12805),0.399
13,DYNLL1 C24 (UniProt P63167),-0.0256
14,EFL1 C831 (UniProt Q7Z2Z2),0.0214
15,EIF4B C457,-0.447
16,EFL1 C670 (UniProt Q7Z2Z2),-0.0389
17,DTL C544 (UniProt Q9NZJ0),0.0524
18,E2F6 C26 (UniProt O75461),0.104
19,EIF3J C207 (UniProt O75822),-0.155
20,DST C6799 (UniProt Q03001),-0.0366
